Data published in patent publication US8748105B2 (Pepscan Systems B.V., priority 2003, dated 2014).

Experiment: peptide synthesis
Conditions: cyclisation step, thioether ring, sequence written open

Ac-CVYETVRVPGSAGGADSLYTYPVATQC-NH2
cyclisation yield: >90%

Ac-C VYETVRVPGSAGGADSLYTYPVATQC-NH2
cyclisation yield: >90%
